Laboratory results as given in patent US20090238778A1, “TOOTH WHITENING COMPOSITIONS, DELIVERY SYSTEMS AND METHODS” (priority 2008, published 2009).

System: extracted human teeth
Assay: adsorption and desorption of riboflavin phosphate on extracted human teeth
[1] = treated specimens subsequently exposed to ambient light for 4 hours

SMILES: Cc1cc2nc3c(=O)[nH]c(=O)nc-3n(C[C@H](O)[C@H](O)[C@H](O)COP(=O)(O)O)c2cc1C [riboflavin phosphate, riboflavin 5′-monophosphate]
- delta b after treatment (after 20 minute treatment with aqueous 0.01% solution, N=8): 1.15
- average b* value after treatment (after 20 minute treatment with aqueous 0.01% solution, N=8, before treatment 21.42): 22.57
- average b* after ambient light [1]: 21.43
- delta b from original b* [1]: 0.01
